Experimental data published in patent US12120996B2, “Induction method for improving yield and fertility of 2n pollen in Camellia oleifera” (Central South University of Forestry and Technology, priority 2024, dated 2024).

System: Camellia oleifera 'Huaxin' 2n pollen
Assay: 2n pollen fertility rate (aceto-carmine staining) after precursor application and 45° C. high-temperature treatment of flower branches
Type: in vivo
Settings: for K1 (sum of 2n pollen fertility rates at level 1 of the factor): level 1: DMTU 5 mg/L, mannitol 0.1 g/L, ascorbic acid 0.5 mg/L, brassinolide 2.0 mg/L, sucrose 5 g/L; for K2 (sum of 2n pollen fertility rates at level 2 of the factor): level 2: DMTU 10 mg/L, mannitol 0.5 g/L, ascorbic acid 1.0 mg/L, brassinolide 4.0 mg/L, sucrose 10 g/L; for K3 (sum of 2n pollen fertility rates at level 3 of the factor): level 3: DMTU 15 mg/L, mannitol 1.0 g/L, ascorbic acid 1.5 mg/L, brassinolide 6.0 mg/L, sucrose 15 g/L; for K4 (sum of 2n pollen fertility rates at level 4 of the factor): level 4: DMTU 20 mg/L, mannitol 2.0 g/L, ascorbic acid 2.0 mg/L, brassinolide 8.0 mg/L, sucrose 30 g/L; for Range (impact degree of the factor on 2n pollen fertility rate): range analysis of L16(4^5) orthogonal design; for optimal level (concentration) for 2n pollen fertility rate: range analysis of orthogonal design
Protocol: After the high-temperature treatment was released, Camellia oleifera grew naturally until anthers were pollinated. Pollen of each treatment was collected, and a temporary smear of the pollen was made by an aceto-carmine staining method and then photographed by an OlympusDP70 optical microscope; and a diameter of pollen in a temporary smear of each treatment was measured by Image J software, and a yield and a fertility rate of 2n pollen were counted.
Pollen stained red by aceto-carmine was counted as fertile pollen, and pollen not stained red by aceto-carmine was counted as infertile pollen (as shown in FIG. 3).
An occurrence frequency of 2n pollen was a ratio of an amount of 2n pollen to a total amount of pollen observed, and a fertility rate of 2n pollen was a ratio of an amount of fertile 2n pollen to a total amount of 2n pollen observed. […] When no high-temperature treatment is applied, an occurrence frequency of 2n pollen is 0.9%, and a fertility rate is 100%. • 2. […] Treatment conditions for 2n pollen in Camellia oleifera in the present disclosure: a leptotene stage to a pachytene stage of pollen mother cells, a style length: less than 2.57 mm, an induction temperature: 43° C. to 49° C., and an induction time: 3 h to 6 h.
Flower branches with a style length developing to 1.97 mm<L≤2.27 mm and pollen mother cells at a leptotene stage to a pachytene stage were selected as target flower branches, and DMTU solutions with different concentrations were applied to the target flower branches, respectively; and a flower branch not treated with a DMTU solution was adopted as a control.
The concentrations of the DMTU solutions were 1 mg/L, 5 mg/L, 10 mg/L, 15 mg/L, 20 mg/L, and 25 mg/L, respectively. Preparation method of a DMTU solution: DMTU was first dissolved with an appropriate amount of alcohol, and then water was added to a required concentration.
The above DMTU solutions with different concentrations each were sprayed on a flower branch, where a DMTU solution was evenly sprayed on a flower branch by a sprayer until there were condensed water droplets flowing down from leaves or flower buds; and each treatment was numbered and recorded (as shown in Table 3).
After each DMTU solution was applied, in order to avoid rapid evaporation of a solution on a leaf surface due to a high-temperature treatment, the whole flower branch was wrapped with a plastic film, and then the non-ex vivo tree branch bud heating device in the authorized patent (patent ZL200610113448.X) was immediately used to apply a 45° C. high-temperature treatment to each target flower branch for 4 h, namely, a high-temperature doubling treatment. A doubling treatment method was the same as the doubling treatment method in step 1.2 of Example 1.
After a high-temperature treatment was conducted for 4 h, a heating bag and a plastic film were removed to release the high-temperature treatment, and Camellia oleifera was allowed to grow naturally until anthers were pollinated. Pollen of each treatment was collected, and a temporary smear of the pollen was made by an aceto-carmine staining method and then photographed by an Olympus DP70 optical microscope; and a diameter of pollen was measured by Image J software, and an occurrence frequency and a fertility rate of 2n pollen were counted.
The above reagents were applied through spraying on a flower branch and injection into a flower bud. The spraying on a flower branch was as follows: a precursor solution was evenly sprayed on the flower branch by a sprayer until there were condensed water droplets flowing down from leaves or flower buds. The injection into a flower bud was as follows: a precursor solution was injected into the flower bud by a 5 mL syringe (0.5×20 mm injection needle) through a scale gap at a top of the flower bud until there were water droplets overflowing a surface of the flower bud. […]

## O=C1O[C@H]([C@@H](O)CO)C(O)=C1O [Ascorbic acid, ascorbic acid]
  K1 (sum of 2n pollen fertility rates at level 1 of the factor): 321.86
  K2 (sum of 2n pollen fertility rates at level 2 of the factor): 333.68
  K3 (sum of 2n pollen fertility rates at level 3 of the factor): 324.16
  K4 (sum of 2n pollen fertility rates at level 4 of the factor): 320.95
  Range (impact degree of the factor on 2n pollen fertility rate): 3.18
  optimal level (concentration) for 2n pollen fertility rate: 1.0 mg/L

## CC(C)[C@H](C)[C@@H](O)[C@H](O)[C@@H](C)[C@H]1CC[C@H]2[C@@H]3COC(=O)[C@H]4C[C@H](O)[C@H](O)C[C@]4(C)[C@H]3CC[C@]12C [Brassinolide, brassinolide]
  K1 (sum of 2n pollen fertility rates at level 1 of the factor): 319.50
  K2 (sum of 2n pollen fertility rates at level 2 of the factor): 331.92
  K3 (sum of 2n pollen fertility rates at level 3 of the factor): 327.78
  K4 (sum of 2n pollen fertility rates at level 4 of the factor): 321.45
  Range (impact degree of the factor on 2n pollen fertility rate): 3.11
  optimal level (concentration) for 2n pollen fertility rate: 4.0 mg/L

## CNC(=S)NC [DMTU, N,N′-Dimethylthiourea]
  K1 (sum of 2n pollen fertility rates at level 1 of the factor): 312.90
  K2 (sum of 2n pollen fertility rates at level 2 of the factor): 350.14
  K3 (sum of 2n pollen fertility rates at level 3 of the factor): 324.48
  K4 (sum of 2n pollen fertility rates at level 4 of the factor): 313.13
  Range (impact degree of the factor on 2n pollen fertility rate): 9.31
  optimal level (concentration) for 2n pollen fertility rate: 10 mg/L

## OC[C@@H](O)[C@@H](O)[C@H](O)[C@H](O)CO [Mannitol, mannitol]
  K1 (sum of 2n pollen fertility rates at level 1 of the factor): 326.57
  K2 (sum of 2n pollen fertility rates at level 2 of the factor): 331.81
  K3 (sum of 2n pollen fertility rates at level 3 of the factor): 323.93
  K4 (sum of 2n pollen fertility rates at level 4 of the factor): 318.34
  Range (impact degree of the factor on 2n pollen fertility rate): 3.37
  optimal level (concentration) for 2n pollen fertility rate: 500 mg/L

## OC[C@H]1O[C@@](CO)(O[C@H]2O[C@H](CO)[C@@H](O)[C@H](O)[C@H]2O)[C@@H](O)[C@@H]1O [Sucrose, sucrose]
  K1 (sum of 2n pollen fertility rates at level 1 of the factor): 323.46
  K2 (sum of 2n pollen fertility rates at level 2 of the factor): 323.81
  K3 (sum of 2n pollen fertility rates at level 3 of the factor): 331.63
  K4 (sum of 2n pollen fertility rates at level 4 of the factor): 321.75
  Range (impact degree of the factor on 2n pollen fertility rate): 2.47
  optimal level (concentration) for 2n pollen fertility rate: 15000 mg/L
